Assay results published in the M2OR odorant receptor database.
This is one part of the list. Calls are pooled over several reports, among them a noisy single-well screen.

Tests used:
Details in all cases: stereoisomer not certain
O52R1 = tested on: T1, O52R1
T1 sequence (whole entry): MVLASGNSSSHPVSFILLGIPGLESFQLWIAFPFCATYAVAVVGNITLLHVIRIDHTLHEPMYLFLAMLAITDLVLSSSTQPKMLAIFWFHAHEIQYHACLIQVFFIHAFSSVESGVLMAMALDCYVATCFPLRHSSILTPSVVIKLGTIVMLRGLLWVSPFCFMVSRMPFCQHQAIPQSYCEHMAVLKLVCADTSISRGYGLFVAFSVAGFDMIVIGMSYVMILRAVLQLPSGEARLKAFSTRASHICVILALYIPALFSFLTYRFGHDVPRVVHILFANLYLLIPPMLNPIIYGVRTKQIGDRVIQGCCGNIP
Procedure, shortened: (§1)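 Values were gathered from published papers (main text and supplementary material), with extra details requested from the original authors when needed, and checked for typos and inconsistencies. Each receptor–molecule pair is called responsive (active) if the original authors judged the measured signal statistically different from baseline, and non-responsive (inactive) otherwise. Assay methods varied by source, often transient mammalian cell-line luciferase assays. Recorded details include cell line, G-protein, co-transfected protein and tags.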

O52W1 = tested on: T2, O52W1
T2 sequence (whole entry): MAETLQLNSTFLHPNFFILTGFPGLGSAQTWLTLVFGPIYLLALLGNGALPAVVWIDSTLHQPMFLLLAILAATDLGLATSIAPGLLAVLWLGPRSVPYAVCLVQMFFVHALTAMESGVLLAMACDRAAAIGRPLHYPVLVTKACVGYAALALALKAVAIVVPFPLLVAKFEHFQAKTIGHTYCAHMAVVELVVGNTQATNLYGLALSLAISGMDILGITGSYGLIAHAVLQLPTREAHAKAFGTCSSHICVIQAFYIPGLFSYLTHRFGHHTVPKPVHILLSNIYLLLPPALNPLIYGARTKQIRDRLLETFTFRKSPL
Procedure, shortened: as §1

O56A3 = tested on: T3, O56A3
T3 sequence (whole entry): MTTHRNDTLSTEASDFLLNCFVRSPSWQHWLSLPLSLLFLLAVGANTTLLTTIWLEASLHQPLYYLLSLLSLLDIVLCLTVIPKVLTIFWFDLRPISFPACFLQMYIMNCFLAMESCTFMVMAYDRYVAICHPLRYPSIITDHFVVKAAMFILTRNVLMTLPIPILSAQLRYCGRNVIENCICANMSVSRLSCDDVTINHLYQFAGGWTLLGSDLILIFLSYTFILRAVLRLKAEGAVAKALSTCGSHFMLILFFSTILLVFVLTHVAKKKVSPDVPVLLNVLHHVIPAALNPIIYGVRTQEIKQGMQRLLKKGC
Procedure, shortened: as §1

O56B1 = tested on: T4, O56B1
T4 sequence (whole entry): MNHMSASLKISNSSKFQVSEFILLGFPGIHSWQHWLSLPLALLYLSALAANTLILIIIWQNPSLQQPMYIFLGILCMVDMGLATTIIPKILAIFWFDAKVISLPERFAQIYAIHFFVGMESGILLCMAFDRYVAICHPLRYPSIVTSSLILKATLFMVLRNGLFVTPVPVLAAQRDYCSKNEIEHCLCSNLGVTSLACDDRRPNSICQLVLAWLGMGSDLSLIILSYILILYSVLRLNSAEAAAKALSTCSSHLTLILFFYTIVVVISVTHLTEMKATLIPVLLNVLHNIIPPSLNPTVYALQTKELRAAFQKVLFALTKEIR
Procedure, shortened: as §1

O56B4 = tested on: T5, O56B4
T5 sequence (whole entry): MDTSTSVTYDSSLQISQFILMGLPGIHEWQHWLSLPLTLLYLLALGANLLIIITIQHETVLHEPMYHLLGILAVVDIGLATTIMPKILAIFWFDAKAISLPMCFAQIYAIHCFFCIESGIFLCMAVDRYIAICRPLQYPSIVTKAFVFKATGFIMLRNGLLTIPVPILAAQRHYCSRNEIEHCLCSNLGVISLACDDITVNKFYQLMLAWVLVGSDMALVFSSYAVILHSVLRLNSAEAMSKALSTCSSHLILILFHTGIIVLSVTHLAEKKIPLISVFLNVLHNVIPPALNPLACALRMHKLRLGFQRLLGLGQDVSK
Procedure, shortened: as §1

O5AC2 = tested on: T6, O5AC2
T6 sequence (whole entry): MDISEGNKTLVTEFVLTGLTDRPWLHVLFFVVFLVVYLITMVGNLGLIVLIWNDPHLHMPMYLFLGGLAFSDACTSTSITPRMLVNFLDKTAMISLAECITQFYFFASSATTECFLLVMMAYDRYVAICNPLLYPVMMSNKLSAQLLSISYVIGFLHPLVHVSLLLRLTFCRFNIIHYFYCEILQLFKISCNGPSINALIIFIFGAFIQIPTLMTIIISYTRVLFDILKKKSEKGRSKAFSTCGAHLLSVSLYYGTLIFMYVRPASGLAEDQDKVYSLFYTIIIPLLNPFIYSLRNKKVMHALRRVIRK
Procedure, shortened: as §1

O5AK2 = tested on: T7, O5AK2
T7 sequence (whole entry): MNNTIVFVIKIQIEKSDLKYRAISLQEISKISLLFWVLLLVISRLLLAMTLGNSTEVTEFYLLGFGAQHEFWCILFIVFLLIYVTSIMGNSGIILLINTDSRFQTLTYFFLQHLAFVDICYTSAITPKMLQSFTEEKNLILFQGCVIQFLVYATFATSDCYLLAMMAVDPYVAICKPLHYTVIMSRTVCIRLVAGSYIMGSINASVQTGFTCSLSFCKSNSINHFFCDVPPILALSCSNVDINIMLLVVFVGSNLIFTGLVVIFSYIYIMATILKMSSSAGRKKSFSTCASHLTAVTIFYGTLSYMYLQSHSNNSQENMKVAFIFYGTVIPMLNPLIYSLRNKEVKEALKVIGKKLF
Procedure, shortened: as §1

O5AK3 = tested on: T8, O5AK3
T8 sequence (whole entry): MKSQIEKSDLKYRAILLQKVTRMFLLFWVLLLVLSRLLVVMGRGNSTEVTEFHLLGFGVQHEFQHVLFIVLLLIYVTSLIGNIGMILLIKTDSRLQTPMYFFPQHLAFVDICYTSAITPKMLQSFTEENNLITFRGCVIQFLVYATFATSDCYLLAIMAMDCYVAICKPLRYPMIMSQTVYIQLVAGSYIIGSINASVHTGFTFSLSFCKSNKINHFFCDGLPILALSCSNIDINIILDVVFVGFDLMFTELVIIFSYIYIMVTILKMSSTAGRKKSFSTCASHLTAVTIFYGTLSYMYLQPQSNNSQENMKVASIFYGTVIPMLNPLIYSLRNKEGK
Procedure, shortened: as §1

O5AL1 = tested on: T9, O5AL1
T9 sequence (whole entry): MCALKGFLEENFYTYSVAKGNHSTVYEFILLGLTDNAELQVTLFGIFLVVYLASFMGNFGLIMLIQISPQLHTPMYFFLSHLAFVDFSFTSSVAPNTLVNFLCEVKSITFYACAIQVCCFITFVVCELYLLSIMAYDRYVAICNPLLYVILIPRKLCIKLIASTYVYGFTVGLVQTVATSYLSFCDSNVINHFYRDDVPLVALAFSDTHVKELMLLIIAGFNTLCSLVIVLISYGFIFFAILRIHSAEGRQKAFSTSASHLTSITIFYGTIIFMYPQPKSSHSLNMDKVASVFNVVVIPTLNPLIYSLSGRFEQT
Procedure, shortened: as §1

O5AP2 = tested on: T10, O5AP2
T10 sequence (whole entry): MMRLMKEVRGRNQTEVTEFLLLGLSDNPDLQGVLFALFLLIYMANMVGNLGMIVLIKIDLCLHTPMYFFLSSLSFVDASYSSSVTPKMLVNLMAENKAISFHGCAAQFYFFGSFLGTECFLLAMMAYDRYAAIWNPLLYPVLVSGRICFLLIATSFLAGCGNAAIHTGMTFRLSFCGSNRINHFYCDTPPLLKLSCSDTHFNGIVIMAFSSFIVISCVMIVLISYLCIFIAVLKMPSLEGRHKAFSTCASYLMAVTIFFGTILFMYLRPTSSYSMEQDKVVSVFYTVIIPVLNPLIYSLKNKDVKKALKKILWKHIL
Procedure, shortened: as §1

Measured: odorant receptor agonist call

CS
inactive: all assays above
